Some of the results follow. Single values are uncertain, as repeats are few or missing.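 Imaging used 1,536-well plates; nuclei positive for cleaved PARP by antibody were divided by total DNA-stained nuclei to yield the apoptosis fraction. Doses for screening kept most cells viable, and cell lines differ markedly in resting and induced cleaved-PARP levels.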
Tests used:
Test in all cases: cleaved PARP positive nuclei fraction relative to DMSO control; melanoma cells; higher = more apoptosis
Conditions in all cases: library dose: low library concentration; 72 h
MZ2-MEL = tested on: MZ2-MEL
MeWo = tested on: MeWo
RPMI7951 = tested on: RPMI7951
RVH-421 = tested on: RVH-421
SkMel28 = tested on: SkMel28
SkMel2 = tested on: SkMel2
SkMel30 = tested on: SkMel30
SkMel5 = tested on: SkMel5
UACC257 = tested on: UACC257
UACC62 = tested on: UACC62
WM115 = tested on: WM115
WM1716 = tested on: WM1716
WM1745 = tested on: WM1745
WM3526 = tested on: WM3526
WM3619 = tested on: WM3619
WM451Lu = tested on: WM451Lu

| SMILES | cleaved PARP positive nuclei fraction (MZ2-MEL) [%] | cleaved PARP positive nuclei fraction (MeWo) [%] | cleaved PARP positive nuclei fraction (RPMI7951) [%] | cleaved PARP positive nuclei fraction (RVH-421) [%] | cleaved PARP positive nuclei fraction (SkMel28) [%] | cleaved PARP positive nuclei fraction (SkMel2) [%] | cleaved PARP positive nuclei fraction (SkMel30) [%] | cleaved PARP positive nuclei fraction (SkMel5) [%] | cleaved PARP positive nuclei fraction (UACC257) [%] | cleaved PARP positive nuclei fraction (UACC62) [%] | cleaved PARP positive nuclei fraction (WM115) [%] | cleaved PARP positive nuclei fraction (WM1716) [%] | cleaved PARP positive nuclei fraction (WM1745) [%] | cleaved PARP positive nuclei fraction (WM3526) [%] | cleaved PARP positive nuclei fraction (WM3619) [%] | cleaved PARP positive nuclei fraction (WM451Lu) [%] |
| --- | --- | --- | --- | --- | --- | --- | --- | --- | --- | --- | --- | --- | --- | --- | --- | --- |
| O=C(O)c1ccc2c(c1)nc(Nc1cccc(Cl)c1)c1ccncc12 + COc1cc(N2CCC(N3CCN(C)CC3)CC2)ccc1Nc1ncc(Cl)c(Nc2ccccc2S(=O)(=O)C(C)C)n1 [NVP-TAE684] (first compound 0.4 µM, partner dose 0.08 µM) | 138 | 172 | 90.2 | 39.7 | 146 | 157 | 89 | 131 | 376 | 117 | 38 | 280 | 95.9 | 53 | 99.7 | 27.3 |
| Nc1ccn([C@@H]2O[C@H](CO)[C@@H](O)C2(F)F)c(=O)n1 [gemcitabine] + COc1cc2c(Oc3ccc4[nH]c(C)cc4c3F)ncnc2cc1OCCCN1CCCC1 [cediranib] (first compound 0.0004 µM, partner dose 0.4 µM) | 64.3 | 91.7 | 65.2 | 49.2 | 271 | 126 | 69.3 | 304 | 107 | 105 | 55.1 | 184 | 164 | 58.4 | 117 | 147 |
| Nc1ccn([C@@H]2O[C@H](CO)[C@@H](O)C2(F)F)c(=O)n1 [gemcitabine] + CN(NC(=O)CC(=O)NN(C)C(=S)c1ccccc1)C(=S)c1ccccc1 [STA4783] (first compound 0.0004 µM, partner dose 0.006 µM) | 117 | 77.7 | 97.9 | 85.3 | 137 | 141 | 568 | 133 | 63.2 | 42.9 | 223 | 133 | 311 | 118 | 162 | 211 |
| Nc1nc(F)nc2c1ncn2[C@@H]1O[C@H](CO)[C@@H](O)[C@@H]1O [fludarabine] + O=c1cc(-c2cccc3c2Sc2ccccc2S3)oc(N2CCOCC2)c1 [KU55933] (first compound 0.2 µM, partner dose 1 µM) | 133 | 513 | 165 | 107 | 103 | 465 | 805 | 109 | 117 | 145 | 101 | 25.9 | 85 | 587 | 65.7 | 610 |
| Nc1ccn([C@@H]2O[C@H](CO)[C@@H](O)C2(F)F)c(=O)n1 [gemcitabine] + O=S(=O)(c1ccccc1)N(CC(F)(F)F)c1ccc(C(O)(C(F)(F)F)C(F)(F)F)cc1 [T0901317] (first compound 0.0004 µM, partner dose 1.4 µM) | 199 | 22.7 | 78.7 | 172 | 36.2 | 133 | 42.4 | 161 | 41.5 | 122 | 43 | 12 | 143 | 95.5 | 132 | 508 |
| CC(C)C[C@H](NC(=O)[C@H](Cc1ccccc1)NC(=O)c1cnccn1)B(O)O [Bortezomib] + C=CCn1c(=O)c2cnc(Nc3ccc(N4CCN(C)CC4)cc3)nc2n1-c1cccc(C(C)(C)O)n1 [MK1775] (first compound 0.001 µM, partner dose 0.02 µM) | 37 | 149 | 98.9 | 154 | 433 | 45 | 73.5 | 139 | 173 | 139 | 209 | 228 | 122 | 94.4 | 230 | 56.7 |
| C=C(c1ccc(C(=O)O)cc1)c1cc2c(cc1C)C(C)(C)CCC2(C)C [Bexarotene] + O=C(CCCCCCC(=O)Nc1ccccc1)NO [vorinostat] (first compound 2 µM, partner dose 0.08 µM) | 148 | 90.5 | 63.1 | 79.5 | 250 | 130 | 192 | 67.6 | 114 | 116 | 32.9 | 88.1 | 86.5 | 67.6 | 104 | 27.9 |
| Nc1ccn([C@@H]2O[C@H](CO)[C@@H](O)C2(F)F)c(=O)n1 [gemcitabine] + Cc1ccc(NC(=O)c2cccc(N(C)C)c2)cc1NC(=O)c1ccc(O)cc1 [ZM336372] (first compound 0.0004 µM, partner dose 2 µM) | 124 | 85.3 | 121 | 77.7 | 66.2 | 57.7 | 145 | 69.5 | 181 | 103 | 67.6 | 64.9 | 115 | 113 | 102 | 178 |
| Nc1ncn([C@H]2C[C@H](O)[C@@H](CO)O2)c(=O)n1 [decitabine] + N#Cc1c(O)c2c(-c3ccc(-c4ccccc4O)cc3)csc2[nH]c1=O [A769662] (first compound 0.1 µM, partner dose 2 µM) | 75 | 49.4 | 256 | 69 | 193 | 104 | 103 | 73 | 138 | 213 | 106 | 212 | 95 | 134 | 103 | 20.6 |
| CC(C)C[C@H](NC(=O)[C@H](Cc1ccccc1)NC(=O)c1cnccn1)B(O)O [Bortezomib] + CC(C)CCN1c2nc(Nc3cc(F)c(O)c(F)c3)ncc2N(C)C(=O)C1C [BID1870] (first compound 0.001 µM, partner dose 0.2 µM) | 151 | 83.3 | 80.9 | 157 | 105 | 77 | 108 | 78.5 | 103 | 300 | 85.7 | 990 | 134 | 45.6 | 780 | 110 |
| CN1CCN(c2ccc3nc(-c4c(N)c5c(F)cccc5[nH]c4=O)[nH]c3c2)CC1 [Dovitinib] + Oc1nc(-c2ccc(C(F)(F)F)cc2)nc2c1CSCC2 [XAV939] (first compound 0.1 µM, partner dose 2 µM) | 292 | 139 | 176 | 178 | 237 | 35.1 | 120 | 88.1 | 206 | 71 | 165 | 924 | 231 | 149 | 186 | 36.3 |
| Nc1ccn([C@@H]2O[C@H](CO)[C@@H](O)C2(F)F)c(=O)n1 [gemcitabine] + NCC(=O)Nc1ccc(-n2nc(C(F)(F)F)cc2-c2ccc3c(ccc4ccccc43)c2)cc1 [OSU03012] (first compound 0.0004 µM, partner dose 1 µM) | 137 | 91.7 | 215 | 82.1 | 102 | 130 | 115 | 65.9 | 235 | 148 | 43.6 | 224 | 133 | 178 | 128 | 207 |
| Nc1nc(F)nc2c1ncn2[C@@H]1O[C@H](CO)[C@@H](O)[C@@H]1O [fludarabine] + Cn1cc(/C=C2\C(=O)Nc3cccnc32)c2ccccc21 [GW441756] (first compound 0.2 µM, partner dose 0.4 µM) | 99.3 | 249 | 93.1 | 72 | 79.4 | 756 | 746 | 125 | 137 | 81.6 | 64.6 | 49.5 | 86.9 | 511 | 67.7 | 397 |
| Cn1c(=O)n(-c2ccc(C(C)(C)C#N)cc2)c2c3cc(-c4cnc5ccccc5c4)ccc3ncc21 + O=c1cc(-c2cccc3c2Sc2ccccc2S3)oc(N2CCOCC2)c1 [KU55933] (first compound 0.004 µM, partner dose 1 µM) | 129 | 25.1 | 185 | 135 | 155 | 122 | 94.7 | 66.9 | 49.7 | 127 | 168 | 79.8 | 95.2 | 198 | 124 | 321 |
| O=C(O)c1ccc2c(c1)nc(Nc1cccc(Cl)c1)c1ccncc12 + Cc1ccc(NC(=O)c2cccc(N(C)C)c2)cc1NC(=O)c1ccc(O)cc1 [ZM336372] (first compound 0.4 µM, partner dose 2 µM) | 96 | 91 | 217 | 123 | 54.3 | 140 | 86.4 | 60.2 | 161 | 137 | 123 | 171 | 112 | 72.2 | 111 | 169 |
| Nc1nc(F)nc2c1ncn2[C@@H]1O[C@H](CO)[C@@H](O)[C@@H]1O [fludarabine] + CN(NC(=O)CC(=O)NN(C)C(=S)c1ccccc1)C(=S)c1ccccc1 [STA4783] (first compound 0.2 µM, partner dose 0.006 µM) | 76.5 | 1660 | 48.3 | 69.7 | 41 | 524 | 332 | 181 | 643 | 91.5 | 145 | 113 | 195 | 258 | 182 | 637 |
| CNC(=O)c1cc(Oc2ccc(NC(=O)Nc3ccc(Cl)c(C(F)(F)F)c3)cc2)ccn1 [sorafenib] + COc1ccc(-c2ccc3c(N4CCOCC4)nc(N4C[C@@H](C)O[C@@H](C)C4)nc3n2)cc1CO [KU0063794] (first compound 0.4 µM, partner dose 0.02 µM) | 185 | 49.1 | 70.8 | 188 | 623 | 130 | 94.7 | 84.2 | 155 | 110 | 168 | 129 | 96.5 | 78.9 | 95.7 | 155 |
| CC(C)C[C@H](NC(=O)[C@H](Cc1ccccc1)NC(=O)c1cnccn1)B(O)O [Bortezomib] + CC(C)(C)c1cnc(CSc2cnc(NC(=O)C3CCNCC3)s2)o1 [SNS-032] (first compound 0.001 µM, partner dose 0.01 µM) | 202 | 180 | 734 | 185 | 62.5 | 138 | 62.6 | 57.5 | 37.7 | 35.7 | 67.1 | 407 | 145 | 121 | 634 | 48.3 |
| O=C(O)[C@@H]1[O][Sb](=[O])([O][Sb]2(=[O])[O][C@H]([C@H](O)CO)[C@H](O)[C@H](C(=O)O)[O]2)[O][C@H]([C@H](O)CO)[C@@H]1O (some centres undefined) [stibogluconate] + O=C(O)C(=O)Nc1sc2c(c1C(=O)O)CCNC2 [TCS401] (first compound 2 µM, partner dose 1.66667 µM) | 146 | 129 | 161 | 64.3 | 79.1 | 178 | 84.5 | 97.6 | 28.4 | 124 | 140 | 172 | 112 | 70.7 | 94.4 | 60.7 |

Quoted from the results shown (2 entries):

| SMILES | cleaved PARP positive nuclei fraction (MZ2-MEL) [%] | cleaved PARP positive nuclei fraction (MeWo) [%] | cleaved PARP positive nuclei fraction (RPMI7951) [%] | cleaved PARP positive nuclei fraction (RVH-421) [%] | cleaved PARP positive nuclei fraction (SkMel28) [%] | cleaved PARP positive nuclei fraction (SkMel2) [%] | cleaved PARP positive nuclei fraction (SkMel30) [%] | cleaved PARP positive nuclei fraction (SkMel5) [%] | cleaved PARP positive nuclei fraction (UACC257) [%] | cleaved PARP positive nuclei fraction (UACC62) [%] | cleaved PARP positive nuclei fraction (WM115) [%] | cleaved PARP positive nuclei fraction (WM1716) [%] | cleaved PARP positive nuclei fraction (WM1745) [%] | cleaved PARP positive nuclei fraction (WM3526) [%] | cleaved PARP positive nuclei fraction (WM3619) [%] | cleaved PARP positive nuclei fraction (WM451Lu) [%] |
| --- | --- | --- | --- | --- | --- | --- | --- | --- | --- | --- | --- | --- | --- | --- | --- | --- |
| Cn1c(=O)n(-c2ccc(C(C)(C)C#N)cc2)c2c3cc(-c4cnc5ccccc5c4)ccc3ncc21 + O=c1cc(-c2cccc3c2Sc2ccccc2S3)oc(N2CCOCC2)c1 [KU55933] (first compound 0.004 µM, partner dose 1 µM) | 129 | 25.1 | 185 | 135 | 155 | 122 | 94.7 | 66.9 | 49.7 | 127 | 168 | 79.8 | 95.2 | 198 | 124 | 321 |
| O=C(O)c1ccc2c(c1)nc(Nc1cccc(Cl)c1)c1ccncc12 + Cc1ccc(NC(=O)c2cccc(N(C)C)c2)cc1NC(=O)c1ccc(O)cc1 [ZM336372] (first compound 0.4 µM, partner dose 2 µM) | 96 | 91 | 217 | 123 | 54.3 | 140 | 86.4 | 60.2 | 161 | 137 | 123 | 171 | 112 | 72.2 | 111 | 169 |

From the supplement of paper PMC4604168 (melanoma cell lines)
